The values that follow come from publication doi:10.1101/2021.08.13.456027.

By UniProt entry, the sequences of proteins in these tests, tags left out. Residues count along the entry.
UniProt Q9D0K2, residues 40-520: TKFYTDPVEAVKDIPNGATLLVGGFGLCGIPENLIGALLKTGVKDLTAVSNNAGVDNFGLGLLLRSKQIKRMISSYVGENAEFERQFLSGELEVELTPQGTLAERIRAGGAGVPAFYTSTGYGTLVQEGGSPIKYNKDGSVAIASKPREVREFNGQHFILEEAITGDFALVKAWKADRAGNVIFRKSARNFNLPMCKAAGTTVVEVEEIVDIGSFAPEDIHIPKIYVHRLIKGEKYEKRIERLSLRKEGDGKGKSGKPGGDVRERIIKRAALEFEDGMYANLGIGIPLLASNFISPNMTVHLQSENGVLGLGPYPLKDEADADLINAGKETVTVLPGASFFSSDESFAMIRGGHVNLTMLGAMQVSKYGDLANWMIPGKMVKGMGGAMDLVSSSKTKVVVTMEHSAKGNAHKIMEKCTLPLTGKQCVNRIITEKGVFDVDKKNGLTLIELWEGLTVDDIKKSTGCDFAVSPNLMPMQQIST

The experiment addresses Succinyl-CoA:3-oxoacid-CoA transferase (SCOT1) (mouse (endogenous in heart tissue)) (UniProt Q9D0K2). Briefly: cross-linking.

These are yes or no findings as the source states them, for the method shown. In cells and extracts the contact can be indirect. Some results given as binding are weak or reduced against the parent protein; the word gives no strength.

“Succinyl-CoA:3-oxoacid-CoA transferase (SCOT1) (from UniProt Q9D0K2 40-520) (enzyme)”: the binding result was “binds”.
